The list shows a part of the results.
Key:
Test in all cases: log2 fold change, soluble protein after heating vs DMSO (PISA); higher = thermal stabilisation; K562 lysate, 10 uM; active = over 0.2 and 3.5 SD of the protein, either way, in both replicates (recomputed)
lapatinib = compound: CS(=O)(=O)CCNCc1ccc(-c2ccc3ncnc(Nc4ccc(OCc5cccc(F)c5)c(Cl)c4)c3c2)o1 [lapatinib]
Outline: (§1)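 Following dounce homogenisation of K562 pellets in PBS pH 7.4 with 1 mM MgCl2, crude extract at 1 mg/mL protein was incubated for 30 min with 10 μM compound. Aliquots were then heated for 3 min over 48°C-58°C and pooled, NP-40 was added to 0.5% at 4°C, and soluble protein was recovered as the supernatant at 21,000xg for 90 min. Channel-sum-equalised TMTpro 16plex LC-MS/MS quantified this protein. Each value, from duplicates, is a log-two fold change in thermal stability relative to solvent controls.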

By UniProt entry, the sequences of proteins in these tests, tags left out. Where a name states a change or a piece, a line headed by the entry shows the natural chain unless it says otherwise.
UniProt Q9Y3Z3: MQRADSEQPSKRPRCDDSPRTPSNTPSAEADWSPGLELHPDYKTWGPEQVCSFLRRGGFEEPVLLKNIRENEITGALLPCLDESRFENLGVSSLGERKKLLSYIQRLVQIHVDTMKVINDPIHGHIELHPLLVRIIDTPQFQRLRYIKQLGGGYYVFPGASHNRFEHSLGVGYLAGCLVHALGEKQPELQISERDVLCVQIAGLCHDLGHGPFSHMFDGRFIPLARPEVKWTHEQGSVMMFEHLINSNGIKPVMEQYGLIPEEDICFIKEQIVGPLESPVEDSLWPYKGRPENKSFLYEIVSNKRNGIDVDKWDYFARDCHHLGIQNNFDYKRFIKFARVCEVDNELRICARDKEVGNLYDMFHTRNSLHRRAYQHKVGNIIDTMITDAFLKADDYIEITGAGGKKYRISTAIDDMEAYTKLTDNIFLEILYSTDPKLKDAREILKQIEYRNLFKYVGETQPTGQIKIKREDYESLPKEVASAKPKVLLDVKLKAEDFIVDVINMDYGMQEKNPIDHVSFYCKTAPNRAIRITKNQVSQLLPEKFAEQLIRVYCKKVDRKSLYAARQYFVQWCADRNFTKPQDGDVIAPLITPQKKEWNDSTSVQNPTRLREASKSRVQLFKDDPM
UniProt Q9UQR0: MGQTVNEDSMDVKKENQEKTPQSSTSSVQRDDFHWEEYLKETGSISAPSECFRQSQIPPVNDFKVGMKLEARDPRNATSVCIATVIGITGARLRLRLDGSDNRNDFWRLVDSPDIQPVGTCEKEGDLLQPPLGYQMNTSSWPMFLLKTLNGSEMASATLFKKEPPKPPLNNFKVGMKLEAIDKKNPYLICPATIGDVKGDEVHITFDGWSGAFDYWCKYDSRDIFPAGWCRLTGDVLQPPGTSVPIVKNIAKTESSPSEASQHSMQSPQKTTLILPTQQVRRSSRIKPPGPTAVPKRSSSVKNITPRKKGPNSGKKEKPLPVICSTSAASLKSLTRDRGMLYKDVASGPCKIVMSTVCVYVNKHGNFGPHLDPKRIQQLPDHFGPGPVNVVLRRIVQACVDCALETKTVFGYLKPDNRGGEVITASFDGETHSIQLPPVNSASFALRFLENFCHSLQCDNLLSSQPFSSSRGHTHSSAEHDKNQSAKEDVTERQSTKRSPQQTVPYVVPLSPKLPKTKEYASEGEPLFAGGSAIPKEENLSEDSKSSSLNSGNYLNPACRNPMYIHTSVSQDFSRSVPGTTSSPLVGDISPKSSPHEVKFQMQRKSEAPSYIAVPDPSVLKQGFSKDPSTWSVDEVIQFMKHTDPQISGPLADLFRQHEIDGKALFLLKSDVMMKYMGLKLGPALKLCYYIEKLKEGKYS
UniProt Q9NRP4: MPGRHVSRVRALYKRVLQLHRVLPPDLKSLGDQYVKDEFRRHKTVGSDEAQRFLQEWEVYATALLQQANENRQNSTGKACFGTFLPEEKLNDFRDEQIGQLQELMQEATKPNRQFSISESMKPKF
UniProt Q15437: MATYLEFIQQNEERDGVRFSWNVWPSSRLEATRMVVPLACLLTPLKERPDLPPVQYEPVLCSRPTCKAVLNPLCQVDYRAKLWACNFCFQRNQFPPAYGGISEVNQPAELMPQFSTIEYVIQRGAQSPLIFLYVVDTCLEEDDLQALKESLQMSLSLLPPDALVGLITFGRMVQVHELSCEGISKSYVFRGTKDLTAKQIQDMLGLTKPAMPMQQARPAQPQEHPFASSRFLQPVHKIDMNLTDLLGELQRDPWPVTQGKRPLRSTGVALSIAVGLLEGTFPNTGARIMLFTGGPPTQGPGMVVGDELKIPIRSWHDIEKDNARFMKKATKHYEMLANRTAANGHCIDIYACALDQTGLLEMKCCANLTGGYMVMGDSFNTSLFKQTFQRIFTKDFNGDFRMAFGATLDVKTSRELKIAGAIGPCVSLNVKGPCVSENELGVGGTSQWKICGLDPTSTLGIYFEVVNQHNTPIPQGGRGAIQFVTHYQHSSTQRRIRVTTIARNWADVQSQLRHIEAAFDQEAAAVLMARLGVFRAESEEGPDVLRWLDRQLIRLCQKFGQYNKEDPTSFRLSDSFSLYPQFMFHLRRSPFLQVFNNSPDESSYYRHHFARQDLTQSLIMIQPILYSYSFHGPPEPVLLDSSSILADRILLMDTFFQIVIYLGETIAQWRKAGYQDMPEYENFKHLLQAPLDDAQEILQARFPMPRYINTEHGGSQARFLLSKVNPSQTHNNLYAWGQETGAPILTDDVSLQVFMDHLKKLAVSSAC
UniProt Q14151: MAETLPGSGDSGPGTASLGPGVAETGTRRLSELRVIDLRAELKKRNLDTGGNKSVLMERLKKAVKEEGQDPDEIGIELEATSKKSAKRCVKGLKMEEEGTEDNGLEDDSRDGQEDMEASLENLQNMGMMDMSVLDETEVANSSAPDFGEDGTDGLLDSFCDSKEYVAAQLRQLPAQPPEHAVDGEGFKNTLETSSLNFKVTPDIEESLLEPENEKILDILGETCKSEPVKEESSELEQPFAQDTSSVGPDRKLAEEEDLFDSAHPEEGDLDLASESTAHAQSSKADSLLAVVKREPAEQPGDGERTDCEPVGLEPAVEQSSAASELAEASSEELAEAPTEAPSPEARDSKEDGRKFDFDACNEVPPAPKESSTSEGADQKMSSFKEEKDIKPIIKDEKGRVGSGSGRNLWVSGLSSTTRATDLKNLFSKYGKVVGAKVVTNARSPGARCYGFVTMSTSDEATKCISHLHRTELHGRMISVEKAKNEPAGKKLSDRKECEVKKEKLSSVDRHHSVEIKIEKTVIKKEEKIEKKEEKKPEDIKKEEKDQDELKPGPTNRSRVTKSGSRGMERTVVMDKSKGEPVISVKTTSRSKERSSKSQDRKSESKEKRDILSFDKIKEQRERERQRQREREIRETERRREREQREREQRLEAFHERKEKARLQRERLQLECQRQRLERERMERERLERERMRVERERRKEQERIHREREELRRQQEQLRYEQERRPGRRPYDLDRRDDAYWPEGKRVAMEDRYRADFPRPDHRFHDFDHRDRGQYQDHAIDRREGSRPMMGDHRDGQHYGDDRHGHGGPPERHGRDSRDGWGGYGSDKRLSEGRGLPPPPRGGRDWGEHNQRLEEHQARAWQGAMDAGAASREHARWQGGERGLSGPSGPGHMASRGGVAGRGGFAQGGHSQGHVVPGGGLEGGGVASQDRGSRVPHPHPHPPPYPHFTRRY
UniProt Q969E2: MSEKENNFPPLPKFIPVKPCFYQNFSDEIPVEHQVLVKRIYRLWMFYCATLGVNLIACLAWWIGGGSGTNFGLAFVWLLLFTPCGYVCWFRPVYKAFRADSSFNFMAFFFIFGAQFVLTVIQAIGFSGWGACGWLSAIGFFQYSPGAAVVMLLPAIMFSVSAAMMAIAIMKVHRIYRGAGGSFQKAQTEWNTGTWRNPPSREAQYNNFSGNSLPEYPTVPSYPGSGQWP
UniProt O95248: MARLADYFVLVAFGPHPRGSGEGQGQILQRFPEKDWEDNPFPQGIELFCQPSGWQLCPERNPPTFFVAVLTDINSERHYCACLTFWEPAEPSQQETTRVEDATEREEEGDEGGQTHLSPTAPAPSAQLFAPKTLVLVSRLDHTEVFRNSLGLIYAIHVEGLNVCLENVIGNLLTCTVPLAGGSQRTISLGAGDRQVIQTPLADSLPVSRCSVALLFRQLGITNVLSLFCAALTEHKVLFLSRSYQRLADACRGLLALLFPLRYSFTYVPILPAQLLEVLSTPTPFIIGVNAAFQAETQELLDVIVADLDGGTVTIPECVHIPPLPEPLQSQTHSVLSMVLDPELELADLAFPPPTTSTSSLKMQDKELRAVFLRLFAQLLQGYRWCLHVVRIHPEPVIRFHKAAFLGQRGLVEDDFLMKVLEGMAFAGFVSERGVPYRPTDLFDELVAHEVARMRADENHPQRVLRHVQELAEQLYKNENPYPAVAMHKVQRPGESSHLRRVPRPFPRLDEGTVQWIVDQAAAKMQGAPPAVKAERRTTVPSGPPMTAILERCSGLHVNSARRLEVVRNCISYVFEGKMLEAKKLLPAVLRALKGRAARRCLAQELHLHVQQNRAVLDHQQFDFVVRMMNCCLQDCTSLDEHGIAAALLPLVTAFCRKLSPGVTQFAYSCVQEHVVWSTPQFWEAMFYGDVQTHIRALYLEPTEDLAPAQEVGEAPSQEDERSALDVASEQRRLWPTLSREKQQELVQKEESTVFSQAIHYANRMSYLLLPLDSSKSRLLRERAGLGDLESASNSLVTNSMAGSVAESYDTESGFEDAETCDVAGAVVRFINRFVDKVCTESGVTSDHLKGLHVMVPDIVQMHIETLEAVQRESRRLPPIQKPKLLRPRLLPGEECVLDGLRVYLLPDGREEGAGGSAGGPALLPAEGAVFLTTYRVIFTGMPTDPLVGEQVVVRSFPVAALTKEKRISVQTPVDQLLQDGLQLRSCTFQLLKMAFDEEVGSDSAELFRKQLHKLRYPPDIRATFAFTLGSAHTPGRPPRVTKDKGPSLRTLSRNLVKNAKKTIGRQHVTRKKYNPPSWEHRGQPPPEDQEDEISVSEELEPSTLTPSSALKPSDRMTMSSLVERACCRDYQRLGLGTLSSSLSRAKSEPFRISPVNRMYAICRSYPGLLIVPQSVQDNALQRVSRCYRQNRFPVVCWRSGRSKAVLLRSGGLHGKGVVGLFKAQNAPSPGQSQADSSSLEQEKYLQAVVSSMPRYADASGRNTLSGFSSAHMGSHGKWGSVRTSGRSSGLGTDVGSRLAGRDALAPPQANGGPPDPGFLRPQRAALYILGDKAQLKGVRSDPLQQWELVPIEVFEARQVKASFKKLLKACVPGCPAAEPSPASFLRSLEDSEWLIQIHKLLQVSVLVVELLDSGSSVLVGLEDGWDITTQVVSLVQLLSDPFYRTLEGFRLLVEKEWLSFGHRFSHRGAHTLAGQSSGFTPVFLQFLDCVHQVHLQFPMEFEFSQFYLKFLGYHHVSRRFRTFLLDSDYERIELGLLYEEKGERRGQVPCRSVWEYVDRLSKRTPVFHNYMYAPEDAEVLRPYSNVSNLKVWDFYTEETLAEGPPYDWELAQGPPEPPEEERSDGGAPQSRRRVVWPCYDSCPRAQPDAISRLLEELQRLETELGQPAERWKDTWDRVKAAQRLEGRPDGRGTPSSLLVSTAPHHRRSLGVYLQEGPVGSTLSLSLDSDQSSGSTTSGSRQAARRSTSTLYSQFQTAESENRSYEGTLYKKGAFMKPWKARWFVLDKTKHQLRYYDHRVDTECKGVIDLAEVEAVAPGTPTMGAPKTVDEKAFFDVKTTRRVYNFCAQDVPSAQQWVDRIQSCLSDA
UniProt Q96HI0: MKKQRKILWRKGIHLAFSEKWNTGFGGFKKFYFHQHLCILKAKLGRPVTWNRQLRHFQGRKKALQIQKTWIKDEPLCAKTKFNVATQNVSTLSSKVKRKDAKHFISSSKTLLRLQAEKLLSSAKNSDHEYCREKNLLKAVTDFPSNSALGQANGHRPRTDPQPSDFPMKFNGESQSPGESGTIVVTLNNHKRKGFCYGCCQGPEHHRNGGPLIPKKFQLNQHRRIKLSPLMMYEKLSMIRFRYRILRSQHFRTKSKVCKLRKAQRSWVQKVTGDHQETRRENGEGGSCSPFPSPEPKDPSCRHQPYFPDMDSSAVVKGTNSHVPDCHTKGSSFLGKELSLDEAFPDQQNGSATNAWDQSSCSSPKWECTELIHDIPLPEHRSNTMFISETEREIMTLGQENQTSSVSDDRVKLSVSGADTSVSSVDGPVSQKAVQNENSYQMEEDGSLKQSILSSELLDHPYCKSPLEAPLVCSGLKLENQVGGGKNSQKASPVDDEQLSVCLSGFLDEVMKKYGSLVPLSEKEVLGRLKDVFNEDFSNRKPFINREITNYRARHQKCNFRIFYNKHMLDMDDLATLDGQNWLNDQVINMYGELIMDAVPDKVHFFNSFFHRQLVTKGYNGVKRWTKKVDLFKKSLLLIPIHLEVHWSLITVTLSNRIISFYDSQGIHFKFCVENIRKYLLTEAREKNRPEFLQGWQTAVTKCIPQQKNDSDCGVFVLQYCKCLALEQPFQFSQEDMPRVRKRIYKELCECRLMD
UniProt O95969: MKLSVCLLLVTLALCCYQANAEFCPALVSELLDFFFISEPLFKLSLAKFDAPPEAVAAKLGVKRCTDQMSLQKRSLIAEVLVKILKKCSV
UniProt Q96I15: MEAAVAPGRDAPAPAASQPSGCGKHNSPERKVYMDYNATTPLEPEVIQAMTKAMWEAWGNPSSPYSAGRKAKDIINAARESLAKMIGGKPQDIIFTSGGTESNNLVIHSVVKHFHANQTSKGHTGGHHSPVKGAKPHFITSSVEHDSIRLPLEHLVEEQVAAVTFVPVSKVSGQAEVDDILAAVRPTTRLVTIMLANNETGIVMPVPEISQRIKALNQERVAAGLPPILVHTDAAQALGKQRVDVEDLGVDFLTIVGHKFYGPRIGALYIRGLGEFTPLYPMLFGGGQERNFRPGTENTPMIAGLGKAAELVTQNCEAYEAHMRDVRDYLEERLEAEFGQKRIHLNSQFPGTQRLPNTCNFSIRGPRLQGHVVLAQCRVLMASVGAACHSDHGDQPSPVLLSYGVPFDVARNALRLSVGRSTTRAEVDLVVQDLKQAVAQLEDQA

pictilisib = compound: CS(=O)(=O)N1CCN(Cc2cc3nc(-c4cccc5[nH]ncc45)nc(N4CCOCC4)c3s2)CC1 [pictilisib]
Outline: as §1

crizotinib = compound: C[C@@H](Oc1cc(-c2cnn(C3CCNCC3)c2)cnc1N)c1c(Cl)ccc(F)c1Cl [crizotinib]
Outline: as §1

[1] = compound: C[C@H](C1=CC=C(C=C1)C(=O)NC2=C3C=CNC3=NC=C2)N
Outline: as §1

duvelisib = compound: C[C@H](Nc1ncnc2nc[nH]c12)c1cc2cccc(Cl)c2c(=O)n1-c1ccccc1 [duvelisib]
Outline: as §1

gandotinib = compound: Cc1cc(Nc2cc(CN3CCOCC3)c3nc(C)c(Cc4ccc(Cl)cc4F)n3n2)n[nH]1 [gandotinib]
Outline: as §1

tozasertib = compound: Cc1cc(Nc2cc(N3CCN(C)CC3)nc(Sc3ccc(NC(=O)C4CC4)cc3)n2)n[nH]1 [tozasertib]
Outline: as §1

doramapimod = compound: Cc1ccc(-n2nc(C(C)(C)C)cc2NC(=O)Nc2ccc(OCCN3CCOCC3)c3ccccc23)cc1 [doramapimod]
Outline: as §1

bafetinib = compound: Cc1ccc(NC(=O)c2ccc(CN3CC[C@H](N(C)C)C3)c(C(F)(F)F)c2)cc1Nc1nccc(-c2cncnc2)n1 [bafetinib]
Outline: as §1

[2] = compound: Cc1cccc(CC(=O)N2CCc3c2ccc(-c2cn(C)c4ncnc(N)c24)c3F)n1
Outline: as §1

Measured: log2 fold change

SAMHD1 (UniProt Q9Y3Z3)
inactive: lapatinib 0.02 | pictilisib -0.071 | crizotinib -0.033 | [1] -0.038 | duvelisib 0.013 | gandotinib -0.029 | tozasertib 0.032 | doramapimod -0.005 | bafetinib -0.071 | [2] 0.028

SDHAF4 (UniProt Q5VUM1)
inactive: lapatinib 0.052 | pictilisib 0.012 | crizotinib 0.092 | [1] 0.004 | duvelisib 0.04 | gandotinib 0 | tozasertib -0.021 | doramapimod -0.105 | bafetinib -0.03 | [2] 0.054

SCAMP1 (UniProt O15126)
inactive: lapatinib -0.02 | pictilisib -0.079 | crizotinib -0.012 | [1] 0.059 | duvelisib 0.022 | gandotinib 0.06 | tozasertib -0.024 | doramapimod -0.004 | bafetinib -0.038 | [2] 0.033

SCML2 (UniProt Q9UQR0)
inactive: lapatinib 0.035 | pictilisib -0.027 | crizotinib -0.022 | [1] 0.034 | duvelisib 0.006 | gandotinib -0.045 | tozasertib 0.029 | doramapimod 0 | bafetinib -0.017 | [2] -0.014

SDCBP (UniProt O00560)
inactive: lapatinib -0.042 | pictilisib -0.033 | crizotinib 0 | [1] 0.019 | duvelisib -0.015 | gandotinib 0.01 | tozasertib -0.019 | doramapimod 0.03 | bafetinib -0.002 | [2] 0.011

S100PBP (UniProt Q96BU1)
inactive: lapatinib 0.024 | pictilisib -0.057 | crizotinib 0.008 | [1] 0.027 | duvelisib 0.034 | gandotinib 0.013 | tozasertib 0.248 | doramapimod 0.08 | bafetinib -0.016 | [2] -0.046

SEPTIN5 (UniProt G3XAH0)
inactive: lapatinib -0.013 | pictilisib -0.079 | crizotinib -0.019 | [1] -0.059 | duvelisib -0.017 | gandotinib 0.027 | tozasertib 0.011 | doramapimod 0.019 | bafetinib 0.028 | [2] 0.055

SEH1L isoform 1 (UniProt Q96EE3)
inactive: lapatinib -0.03 | pictilisib -0.009 | crizotinib 0.01 | [1] -0.027 | duvelisib -0.049 | gandotinib 0.029 | tozasertib 0.011 | doramapimod 0.007 | bafetinib -0.085 | [2] 0.052

SASS6 (UniProt Q6UVJ0)
inactive: lapatinib 0.001 | pictilisib -0.056 | crizotinib -0.01 | [1] 0.099 | duvelisib -0.018 | gandotinib -0.076 | tozasertib 0.004 | doramapimod -0.01 | bafetinib -0.032 | [2] -0.054

SDHAF3 (UniProt Q9NRP4)
inactive: lapatinib -0.008 | pictilisib -0.011 | crizotinib -0.014 | [1] -0.087 | duvelisib 0.021 | gandotinib 0.013 | tozasertib 0.027 | doramapimod 0.062 | bafetinib -0.064 | [2] -0.023

SCO2 (UniProt O43819)
inactive: lapatinib 0.118 | pictilisib -0.057 | crizotinib 0.026 | [1] -0.163 | duvelisib 0.092 | gandotinib 0.048 | tozasertib -0.007 | doramapimod 0.002 | bafetinib 0.029 | [2] 0.101

SACM1L (UniProt Q9NTJ5)
inactive: lapatinib -0.066 | pictilisib -0.028 | crizotinib -0.124 | [1] -0.024 | duvelisib -0.016 | gandotinib -0.145 | tozasertib 0.01 | doramapimod 0.026 | bafetinib -0.077 | [2] 0.095

SELENOS (UniProt Q9BQE4)
inactive: lapatinib -0.033 | pictilisib 0.012 | crizotinib 0.01 | [1] -0.002 | duvelisib -0.024 | gandotinib 0.02 | tozasertib -0.013 | doramapimod -0.054 | bafetinib 0.032 | [2] -0.059

SAMM50 (UniProt Q9Y512)
inactive: lapatinib 0.009 | pictilisib -0.007 | crizotinib -0.021 | [1] 0.068 | duvelisib -0.015 | gandotinib -0.008 | tozasertib -0.008 | doramapimod 0.011 | bafetinib -0.018 | [2] -0.016

SEC23B (UniProt Q15437)
inactive: lapatinib -0.011 | pictilisib -0.056 | crizotinib 0.013 | [1] 0.006 | duvelisib -0.003 | gandotinib -0.024 | tozasertib 0.022 | doramapimod -0.005 | bafetinib 0.01 | [2] -0.006

SAP30 (UniProt O75446)
inactive: lapatinib -0.064 | pictilisib -0.036 | crizotinib 0.044 | [1] 0.042 | duvelisib 0.004 | gandotinib -0.036 | tozasertib -0.056 | doramapimod 0.013 | bafetinib -0.073 | [2] 0.012

SAFB2 (UniProt Q14151)
inactive: lapatinib -0.019 | pictilisib -0.009 | crizotinib 0.012 | [1] -0.069 | duvelisib 0.008 | gandotinib 0.018 | tozasertib 0.016 | doramapimod -0.016 | bafetinib 0.039 | [2] 0.039

SCPEP1 (UniProt Q9HB40)
inactive: lapatinib 0.011 | pictilisib -0.008 | crizotinib -0.035 | [1] 0.062 | duvelisib -0.009 | gandotinib -0.01 | tozasertib 0.063 | doramapimod -0.018 | bafetinib -0.058 | [2] -0.064

SCAMP4 (UniProt Q969E2)
inactive: lapatinib -0.002 | pictilisib -0.041 | crizotinib 0.024 | [1] 0.036 | duvelisib 0.021 | gandotinib -0.032 | tozasertib -0.058 | doramapimod -0.056 | bafetinib -0.028 | [2] -0.028

Taken from above (two entries):
SCPEP1 (UniProt Q9HB40)
inactive: lapatinib 0.011 | pictilisib -0.008 | crizotinib -0.035 | [1] 0.062 | duvelisib -0.009 | gandotinib -0.01 | tozasertib 0.063 | doramapimod -0.018 | bafetinib -0.058 | [2] -0.064

SCAMP4 (UniProt Q969E2)
inactive: lapatinib -0.002 | pictilisib -0.041 | crizotinib 0.024 | [1] 0.036 | duvelisib 0.021 | gandotinib -0.032 | tozasertib -0.058 | doramapimod -0.056 | bafetinib -0.028 | [2] -0.028

More results

SBF1 isoform 4 (UniProt O95248)
inactive: lapatinib -0.029 | pictilisib -0.075 | crizotinib 0.088 | [1] 0.07 | duvelisib -0.039 | gandotinib -0.066 | tozasertib 0 | doramapimod -0.004 | bafetinib -0.061 | [2] 0.006

SDHC (UniProt Q99643)
inactive: lapatinib 0.002 | pictilisib 0.071 | crizotinib 0.032 | [1] -0.244 | duvelisib 0.004 | gandotinib 0.179 | tozasertib -0.067 | doramapimod 0.016 | bafetinib -0.004 | [2] 0.133

SCYL2 (UniProt Q6P3W7)
inactive: lapatinib 0.012 | pictilisib -0.014 | crizotinib 0 | [1] -0.108 | duvelisib -0.004 | gandotinib 0.07 | tozasertib 0.006 | doramapimod 0.07 | bafetinib -0.019 | [2] 0.06

SENP5 (UniProt Q96HI0)
inactive: lapatinib -0.124 | pictilisib -0.29 | crizotinib -0.076 | duvelisib 0.016 | tozasertib -0.011 | doramapimod 0.011 | bafetinib -0.045

SEC62 (UniProt Q99442)
inactive: lapatinib 0.028 | pictilisib -0.029 | crizotinib 0.011 | [1] 0.231 | duvelisib 0 | gandotinib -0.07 | tozasertib -0.024 | doramapimod 0.002 | bafetinib 0.029 | [2] -0.072

SCFD1 (UniProt Q8WVM8)
inactive: lapatinib -0.01 | pictilisib -0.037 | crizotinib -0.045 | [1] -0.035 | duvelisib -0.022 | gandotinib -0.031 | tozasertib -0.017 | doramapimod 0 | bafetinib -0.028 | [2] 0.018

SEPTIN7 (UniProt Q16181)
inactive: lapatinib -0.003 | pictilisib 0.004 | crizotinib 0.007 | [1] 0.106 | duvelisib 0.009 | gandotinib -0.037 | tozasertib 0.002 | doramapimod 0.041 | bafetinib 0.056 | [2] -0.06

SCGB1D2 (UniProt O95969)
inactive: lapatinib 0.129 | pictilisib 0.358 | crizotinib -0.344 | [1] 0.57 | duvelisib -0.031 | gandotinib -0.325 | tozasertib 0.81 | doramapimod 0.084 | bafetinib 0.267 | [2] 0.319

SCLY (UniProt Q96I15)
inactive: lapatinib 0.016 | pictilisib -0.033 | crizotinib -0.008 | [1] 0.002 | duvelisib -0.001 | gandotinib 0.072 | tozasertib 0.008 | doramapimod 0 | bafetinib 0.028 | [2] 0.041

Reference: the supplement of paper PMC10849652
